Patent US20220184143A1, “COMPOSITIONS AND METHODS OF MODULATING CASOTRANSMITTER SIGNALING” (CASE WESTERN RESERVE UNIVERSITY, priority 2019, published 2022)
These are yes or no findings as the source states them, for the method shown. For some assays here: In cells and extracts the contact can be indirect. Some binding calls cover weakened binding; strength is not graded here. One block for each substance: values may come before it.

By UniProt entry, the sequences of proteins in these tests, tags left out.
UniProt Q8NDV7: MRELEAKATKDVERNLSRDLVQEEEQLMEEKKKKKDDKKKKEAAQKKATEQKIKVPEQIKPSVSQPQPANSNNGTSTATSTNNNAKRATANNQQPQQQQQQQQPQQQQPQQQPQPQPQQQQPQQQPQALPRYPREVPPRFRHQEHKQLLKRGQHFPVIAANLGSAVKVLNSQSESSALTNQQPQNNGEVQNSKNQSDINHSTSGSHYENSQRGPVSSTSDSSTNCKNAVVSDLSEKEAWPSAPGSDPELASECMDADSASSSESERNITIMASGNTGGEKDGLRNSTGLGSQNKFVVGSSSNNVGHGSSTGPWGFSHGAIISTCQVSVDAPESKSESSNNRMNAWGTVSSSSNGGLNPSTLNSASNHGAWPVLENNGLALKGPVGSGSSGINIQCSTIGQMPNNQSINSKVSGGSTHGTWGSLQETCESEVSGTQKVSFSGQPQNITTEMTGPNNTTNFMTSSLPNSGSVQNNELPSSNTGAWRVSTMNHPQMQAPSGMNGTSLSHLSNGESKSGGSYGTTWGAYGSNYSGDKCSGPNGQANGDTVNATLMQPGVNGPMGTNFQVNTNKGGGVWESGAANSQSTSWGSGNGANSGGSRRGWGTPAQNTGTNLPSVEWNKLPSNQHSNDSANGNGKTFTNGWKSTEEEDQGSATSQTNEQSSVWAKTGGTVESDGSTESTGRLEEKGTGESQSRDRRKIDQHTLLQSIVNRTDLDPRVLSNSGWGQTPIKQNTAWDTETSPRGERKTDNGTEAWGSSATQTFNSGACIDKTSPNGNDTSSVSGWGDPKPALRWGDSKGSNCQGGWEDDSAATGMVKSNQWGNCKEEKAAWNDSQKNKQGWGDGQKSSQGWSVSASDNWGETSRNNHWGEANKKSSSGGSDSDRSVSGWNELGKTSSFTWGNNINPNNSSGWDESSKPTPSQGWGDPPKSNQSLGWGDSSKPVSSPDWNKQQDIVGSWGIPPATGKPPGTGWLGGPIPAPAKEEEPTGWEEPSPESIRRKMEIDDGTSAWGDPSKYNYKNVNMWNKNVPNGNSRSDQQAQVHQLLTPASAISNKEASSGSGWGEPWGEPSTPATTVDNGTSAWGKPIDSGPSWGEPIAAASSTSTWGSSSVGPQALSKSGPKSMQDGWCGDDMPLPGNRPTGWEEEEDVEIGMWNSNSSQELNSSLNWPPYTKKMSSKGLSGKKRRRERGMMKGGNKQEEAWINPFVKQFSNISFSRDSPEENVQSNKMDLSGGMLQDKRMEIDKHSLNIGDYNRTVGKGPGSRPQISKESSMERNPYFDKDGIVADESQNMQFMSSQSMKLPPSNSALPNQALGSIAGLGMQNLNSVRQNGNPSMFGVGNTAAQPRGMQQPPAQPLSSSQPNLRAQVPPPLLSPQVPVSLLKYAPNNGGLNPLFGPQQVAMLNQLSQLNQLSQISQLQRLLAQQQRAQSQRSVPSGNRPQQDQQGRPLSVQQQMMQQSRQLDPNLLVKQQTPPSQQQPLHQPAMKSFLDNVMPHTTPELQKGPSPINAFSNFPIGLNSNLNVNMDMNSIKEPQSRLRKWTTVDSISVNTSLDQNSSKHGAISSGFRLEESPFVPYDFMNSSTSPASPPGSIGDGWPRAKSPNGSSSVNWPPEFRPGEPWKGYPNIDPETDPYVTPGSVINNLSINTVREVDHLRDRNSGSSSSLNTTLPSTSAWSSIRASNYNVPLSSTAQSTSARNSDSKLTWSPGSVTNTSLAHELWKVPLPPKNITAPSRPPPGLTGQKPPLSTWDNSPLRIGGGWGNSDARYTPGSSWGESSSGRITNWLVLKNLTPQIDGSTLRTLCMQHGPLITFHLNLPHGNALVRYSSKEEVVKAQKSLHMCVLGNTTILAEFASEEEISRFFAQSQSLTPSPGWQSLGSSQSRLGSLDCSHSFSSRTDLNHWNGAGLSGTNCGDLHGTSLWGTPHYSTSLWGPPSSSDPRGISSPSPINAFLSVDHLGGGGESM
UniProt Q9UKV8: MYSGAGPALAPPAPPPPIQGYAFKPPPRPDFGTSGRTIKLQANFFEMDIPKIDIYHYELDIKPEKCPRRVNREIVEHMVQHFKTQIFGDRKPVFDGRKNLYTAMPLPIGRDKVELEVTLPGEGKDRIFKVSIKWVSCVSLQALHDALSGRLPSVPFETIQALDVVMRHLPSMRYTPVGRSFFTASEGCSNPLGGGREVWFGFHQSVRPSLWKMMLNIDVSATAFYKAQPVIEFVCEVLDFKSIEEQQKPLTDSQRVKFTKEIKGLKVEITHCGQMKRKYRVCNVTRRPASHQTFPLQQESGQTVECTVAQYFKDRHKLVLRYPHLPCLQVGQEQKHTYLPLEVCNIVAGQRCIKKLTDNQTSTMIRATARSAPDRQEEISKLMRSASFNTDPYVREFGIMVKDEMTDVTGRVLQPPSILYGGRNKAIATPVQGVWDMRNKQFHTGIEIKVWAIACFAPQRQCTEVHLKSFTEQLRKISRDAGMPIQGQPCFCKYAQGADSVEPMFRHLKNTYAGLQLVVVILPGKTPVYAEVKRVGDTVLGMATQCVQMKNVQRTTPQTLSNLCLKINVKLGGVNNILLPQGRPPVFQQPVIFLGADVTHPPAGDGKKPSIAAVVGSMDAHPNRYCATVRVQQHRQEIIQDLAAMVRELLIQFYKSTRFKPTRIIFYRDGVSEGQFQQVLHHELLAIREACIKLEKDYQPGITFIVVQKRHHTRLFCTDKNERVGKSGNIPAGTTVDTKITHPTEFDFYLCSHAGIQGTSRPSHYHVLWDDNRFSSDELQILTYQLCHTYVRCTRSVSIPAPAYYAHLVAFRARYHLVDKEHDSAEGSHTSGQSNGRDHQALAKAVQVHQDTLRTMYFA

Tests used:
[1] = molecular target: GW182 (endogenous, HEK293 cells) (human (endogenous in HEK293 cells)) (UniProt Q8NDV7); assay: immunoprecipitation with anti-Myc antibody, GW182 immunoblot, HEK293 cells
[2] = molecular target: GW182 (endogenous, HEK293 cells) (human (endogenous in HEK293 cells)) (UniProt Q8NDV7); assay: immunoprecipitation of endogenous proteins, with or without NO treatment
[3] = molecular target: GW182 (endogenous, HEK293 cells) (human (endogenous in HEK293 cells)) (UniProt Q8NDV7); assay: immunoprecipitation of endogenous AGO2 and of endogenous GW182, with NO treatment controls
[4] = molecular target: GW182 (endogenous, HEK293 cells) (human (endogenous in HEK293 cells)) (UniProt Q8NDV7); assay: co-immunoprecipitation (anti-FLAG IP, GW182 blot; GW182 IP, FLAG blot), HEK293 cells
[5] = molecular target: GW182 (endogenous, HEK293 cells) (human (endogenous in HEK293 cells)) (UniProt Q8NDV7); assay: reciprocal co-immunoprecipitation, HEK293 cells transfected with FLAG-AGO2, with or without DETA-NO

binding [1]: binds
Substance: Myc-AGO2 (Myc-tagged wild-type human Argonaute-2) (from UniProt Q9UKV8 1-859)

binding [2]: binds | binding [3]: binds
Substance: endogenous AGO2 (Argonaute-2 of cultured mammalian cells) (from UniProt Q9UKV8 1-859)

binding [4]: binds | binding [5]: binds
Substance: FLAG-AGO2 (FLAG-tagged wild-type human Argonaute-2) (from UniProt Q9UKV8 1-859)
